Data as given in PMC10897455.
No constants are given. Whether binding was seen depends on the method and setting. In cells and extracts the contact can be indirect. Some results given as binding are weak or reduced against the parent protein; the word gives no strength. Tags and fused reporters may be left off the sequences shown. Values belong to the binder of their own block, whether it stands above or below them.

Experiments:
[1] = target: T1, TMEM25-FL (residues 27–366), N-terminally FLAG- or HA-tagged, in HEK293 cells (human) (UniProt Q86YD3); assay: co-IP; cis: HEK293T cells co-transfected with two tagged proteins, cultured at low density; lysis in 150 mM NaCl, 4 mM EDTA, 10% glycerol, 0.5% Triton X-100, 50 mM Tris-HCl pH 7.5, 1 mM DTT; anti-FLAG (M2) or anti-HA (3F10) on protein G-Sepharose; immunoblot
T1 sequence (chain, N-glycosylated (complex-type and high-mannose-type N-glycans)): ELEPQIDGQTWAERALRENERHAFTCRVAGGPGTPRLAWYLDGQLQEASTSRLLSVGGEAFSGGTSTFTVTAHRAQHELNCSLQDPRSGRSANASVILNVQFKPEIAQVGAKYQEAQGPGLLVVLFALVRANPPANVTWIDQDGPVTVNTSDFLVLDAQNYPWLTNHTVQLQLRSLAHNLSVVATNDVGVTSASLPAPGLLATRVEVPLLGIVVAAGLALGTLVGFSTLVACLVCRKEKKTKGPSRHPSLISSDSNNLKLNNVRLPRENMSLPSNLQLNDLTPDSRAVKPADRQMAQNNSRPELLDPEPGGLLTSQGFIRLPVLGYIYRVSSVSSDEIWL

[2] = target: T2, TMEM25-ΔECR (residues 225–366), FLAG-tagged, in HEK293 cells (human) (UniProt Q86YD3); assay: as above
T2 sequence: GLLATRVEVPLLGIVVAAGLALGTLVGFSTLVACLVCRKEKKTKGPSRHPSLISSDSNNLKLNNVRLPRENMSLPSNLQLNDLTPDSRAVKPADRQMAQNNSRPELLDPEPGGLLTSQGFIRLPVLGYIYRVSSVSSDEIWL

[3] = target: T3, TMEM25-ΔICR (residues 27–268), FLAG-tagged, in HEK293 cells (human) (UniProt Q86YD3); assay: as above
T3 sequence: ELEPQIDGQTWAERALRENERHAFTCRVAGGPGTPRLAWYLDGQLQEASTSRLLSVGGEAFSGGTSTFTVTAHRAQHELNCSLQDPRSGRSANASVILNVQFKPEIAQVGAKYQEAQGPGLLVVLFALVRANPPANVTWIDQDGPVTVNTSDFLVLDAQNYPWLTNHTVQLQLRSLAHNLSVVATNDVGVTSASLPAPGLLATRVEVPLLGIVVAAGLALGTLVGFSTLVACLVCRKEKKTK

[4] = target: T4, TM-JAM chimera (TMEM25 with its transmembrane segment replaced by that of JAM-A), FLAG-tagged (human) (UniProt Q86YD3+Q9Y624); assay: as above
T4 sequence: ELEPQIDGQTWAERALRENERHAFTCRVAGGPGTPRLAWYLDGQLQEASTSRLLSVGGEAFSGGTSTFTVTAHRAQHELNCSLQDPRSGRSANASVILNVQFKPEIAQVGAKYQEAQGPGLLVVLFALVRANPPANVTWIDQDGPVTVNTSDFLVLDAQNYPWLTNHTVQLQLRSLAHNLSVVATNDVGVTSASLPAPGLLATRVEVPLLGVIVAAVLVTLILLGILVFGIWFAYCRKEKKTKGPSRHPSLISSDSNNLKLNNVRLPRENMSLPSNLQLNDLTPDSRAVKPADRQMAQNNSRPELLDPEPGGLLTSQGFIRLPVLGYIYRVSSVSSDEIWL

[5] = target: T5, TMEM25-NQ (N106Q/N119Q/N162Q/N175Q/N192Q/N205Q), FLAG- or HA-tagged, in HEK293 cells (human) (UniProt Q86YD3); assay: as above
T5 sequence: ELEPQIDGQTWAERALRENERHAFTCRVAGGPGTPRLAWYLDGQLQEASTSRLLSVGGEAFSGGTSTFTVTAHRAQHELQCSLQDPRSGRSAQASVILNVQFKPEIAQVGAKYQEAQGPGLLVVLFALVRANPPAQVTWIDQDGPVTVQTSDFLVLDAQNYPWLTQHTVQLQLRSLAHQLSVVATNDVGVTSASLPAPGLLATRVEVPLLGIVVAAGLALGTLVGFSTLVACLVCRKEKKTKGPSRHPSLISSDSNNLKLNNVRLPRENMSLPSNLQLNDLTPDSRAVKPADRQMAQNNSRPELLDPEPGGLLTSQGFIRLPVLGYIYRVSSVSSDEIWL

[6] = target: JAM-A (residues 28–299), N-terminally FLAG- or HA-tagged, in HEK293 cells (human) (UniProt Q9Y624); assay: co-IP; trans: HEK293T cells expressing one tagged protein co-cultured to confluency with HEK293T cells expressing the other; lysate precipitated with anti-FLAG antibody; immunoblot
[7] = target: JAM-A (residues 28–299), N-terminally FLAG- or HA-tagged, in HEK293 cells (human) (UniProt Q9Y624); assay: co-IP; cis: HEK293T cells co-transfected with two tagged proteins, cultured at low density; lysis in 150 mM NaCl, 4 mM EDTA, 10% glycerol, 0.5% Triton X-100, 50 mM Tris-HCl pH 7.5, 1 mM DTT; anti-FLAG (M2) or anti-HA (3F10) on protein G-Sepharose; immunoblot
[8] = target: T6, claudin-2 (residues 1–230), FLAG- or Myc-tagged, in HEK293 cells (human), P57739; assay: co-IP; cis, with or without a co-expressed third protein: HEK293T cells triply transfected (HA–TMEM25, HA–JAM-A or Myc–Par3 as third protein), low density; anti-FLAG or anti-HA precipitation; immunoblot, band ratios; settings: remark: other sources report otherwise
T6 chain: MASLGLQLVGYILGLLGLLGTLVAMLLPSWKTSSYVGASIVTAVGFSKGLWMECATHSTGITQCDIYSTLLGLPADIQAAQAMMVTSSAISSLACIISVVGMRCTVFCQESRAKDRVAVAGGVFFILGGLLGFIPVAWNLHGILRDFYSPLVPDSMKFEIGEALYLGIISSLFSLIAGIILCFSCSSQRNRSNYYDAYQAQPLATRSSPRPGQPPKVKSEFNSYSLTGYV

B2: TMEM25-FL (residues 27–366), N-terminally FLAG- or HA-tagged, in HEK293 cells (protein, UniProt Q86YD3 27-366)
chain: ELEPQIDGQTWAERALRENERHAFTCRVAGGPGTPRLAWYLDGQLQEASTSRLLSVGGEAFSGGTSTFTVTAHRAQHELNCSLQDPRSGRSANASVILNVQFKPEIAQVGAKYQEAQGPGLLVVLFALVRANPPANVTWIDQDGPVTVNTSDFLVLDAQNYPWLTNHTVQLQLRSLAHNLSVVATNDVGVTSASLPAPGLLATRVEVPLLGIVVAAGLALGTLVGFSTLVACLVCRKEKKTKGPSRHPSLISSDSNNLKLNNVRLPRENMSLPSNLQLNDLTPDSRAVKPADRQMAQNNSRPELLDPEPGGLLTSQGFIRLPVLGYIYRVSSVSSDEIWL
modifications: N-glycosylated (complex-type and high-mannose-type N-glycans)
binding [2]: binds | binding [3]: binds | binding [4]: binds

B3: TMEM25-NQ (N106Q/N119Q/N162Q/N175Q/N192Q/N205Q), FLAG- or HA-tagged, in HEK293 cells (protein, UniProt Q86YD3 27-366)
chain: ELEPQIDGQTWAERALRENERHAFTCRVAGGPGTPRLAWYLDGQLQEASTSRLLSVGGEAFSGGTSTFTVTAHRAQHELQCSLQDPRSGRSAQASVILNVQFKPEIAQVGAKYQEAQGPGLLVVLFALVRANPPAQVTWIDQDGPVTVQTSDFLVLDAQNYPWLTQHTVQLQLRSLAHQLSVVATNDVGVTSASLPAPGLLATRVEVPLLGIVVAAGLALGTLVGFSTLVACLVCRKEKKTKGPSRHPSLISSDSNNLKLNNVRLPRENMSLPSNLQLNDLTPDSRAVKPADRQMAQNNSRPELLDPEPGGLLTSQGFIRLPVLGYIYRVSSVSSDEIWL
binding [5]: binds

B5: JAM-A (residues 28–299), N-terminally FLAG- or HA-tagged, in HEK293 cells (protein, UniProt Q9Y624 28-299)
chain: SVTVHSSEPEVRIPENNPVKLSCAYSGFSSPRVEWKFDQGDTTRLVCYNNKITASYEDRVTFLPTGITFKSVTREDTGTYTCMVSEEGGNSYGEVKVKLIVLVPPSKPTVNIPSSATIGNRAVLTCSEQDGSPPSEYTWFKDGIVMPTNPKSTRAFSNSSYVLNPTTGELVFDPLSASDTGEYSCEARNGYGTPMTSNAVRMEAVERNVGVIVAAVLVTLILLGILVFGIWFAYSRGHFDRTKKGTSSKKVIYSQPSARSEGEFKQTSSFLV
binding [6]: binds | binding [7]: binds | binding [1]: no binding

B6: claudin-2 (residues 1–230), FLAG- or Myc-tagged, in HEK293 cells (protein, UniProt P57739 1-230)
chain: MASLGLQLVGYILGLLGLLGTLVAMLLPSWKTSSYVGASIVTAVGFSKGLWMECATHSTGITQCDIYSTLLGLPADIQAAQAMMVTSSAISSLACIISVVGMRCTVFCQESRAKDRVAVAGGVFFILGGLLGFIPVAWNLHGILRDFYSPLVPDSMKFEIGEALYLGIISSLFSLIAGIILCFSCSSQRNRSNYYDAYQAQPLATRSSPRPGQPPKVKSEFNSYSLTGYV
binding [1]: binds

B7: claudin-2 (residues 1–230), FLAG- or Myc-tagged, in HEK293 cells, P57739 1-230 (protein)
chain: MASLGLQLVGYILGLLGLLGTLVAMLLPSWKTSSYVGASIVTAVGFSKGLWMECATHSTGITQCDIYSTLLGLPADIQAAQAMMVTSSAISSLACIISVVGMRCTVFCQESRAKDRVAVAGGVFFILGGLLGFIPVAWNLHGILRDFYSPLVPDSMKFEIGEALYLGIISSLFSLIAGIILCFSCSSQRNRSNYYDAYQAQPLATRSSPRPGQPPKVKSEFNSYSLTGYV
binding [8]: binds

Continued, values first:

binding [1]: no binding
B1: claudin-15 (residues 1–228), FLAG-tagged, in HEK293 cells (protein, UniProt P56746 1-228)
chain: MSMAVETFGFFMATVGLLMLGVTLPNSYWRVSTVHGNVITTNTIFENLWFSCATDSLGVYNCWEFPSMLALSGYIQACRALMITAILLGFLGLLLGIAGLRCTNIGGLELSRKAKLAATAGALHILAGICGMVAISWYAFNITRDFFDPLYPGTKYELGPALYLGWSASLISILGGLCLCSACCCGSDEDPAASARRPYQAPVSVMPVATSDQEGDSSFGKYGRNAYV

binding [1]: no binding
B4: occludin (residues 1–522), FLAG- or Myc-tagged, in HEK293 cells (protein, UniProt Q16625 1-522)
chain: MSSRPLESPPPYRPDEFKPNHYAPSNDIYGGEMHVRPMLSQPAYSFYPEDEILHFYKWTSPPGVIRILSMLIIVMCIAIFACVASTLAWDRGYGTSLLGGSVGYPYGGSGFGSYGSGYGYGYGYGYGYGGYTDPRAAKGFMLAMAAFCFIAALVIFVTSVIRSEMSRTRRYYLSVIIVSAILGIMVFIATIVYIMGVNPTAQSSGSLYGSQIYALCNQFYTPAATGLYVDQYLYHYCVVDPQEAIAIVLGFMIIVAFALIIFFAVKTRRKMDRYDKSNILWDKEHIYDEQPPNVEEWVKNVSAGTQDVPSPPSDYVERVDSPMAYSSNGKVNDKRFYPESSYKSTPVPEVVQELPLTSPVDDFRQPRYSSGGNFETPSKRAPAKGRAGRSKRTEQDHYETDYTTGGESCDELEEDWIREYPPITSDQQRQLYKRNFDTGLQEYKSLQSELDEINKELSRLDKELDDYREESEEYMAAADEYNRLKQVKGSADYKSKKNHCKQLKSKLSHIKKMVGDYDRQKT
